Results published in patent US7259140B2, “Heparin-binding peptides and uses thereof” (Thomas Jefferson University, priority 2003, dated 2007).
Not every detail of the peptide structures is certain; ends, links or a residue may be inferred. Some results were stated once for a whole list of compounds, not compound by compound. Some compounds share one range, which may span the group rather than tell each member. Ends that are not written are not given here.

Experiments:
[1] = test system: unfractionated heparin (thrombin-induced clot formation); assay: Thrombin neutralization assay: clotting time of citrated plasma in the presence of unfractionated heparin; assay type: biochemical, human; details: for Time for clot formation: UFH 0.5 IU/ml
Procedure: It was determined whether heparin-binding peptides of the invention can neutralize unfractionated heparin using the thrombin neutralization assay. The six peptides that were synthesized and used in this Example are: (ARKKAAKA)3VLVLVLVL (SEQ ID NO:5); (ARKKAAKA)(A16)(ARKKAAKA) (SEQ ID NO:30); (ARKKAAKA)4 (SEQ ID NO:31); (AKKARA)6 (SEQ ID NO:32); (ARKKAAKA)3(ARKKCAKA) (SEQ ID NO:33); and cyclized C(ARKKAAKA)4C (SEQ ID NO:34); Citrated plasma was pipetted into a glass tube. Thrombin was added, the tube was manually rotated, and clotting time was determined by observation of clot formation. Normal clotting time is 19-22 seconds.
As a control, to assess the effect of heparin on clot formation, unfractionated heparin was added to the plasma at 0.5 IU anti-thrombin activity/ml and then thrombin was added. Clotting time in the presence of heparin alone was greater than 3 minutes.
To test the effect of peptides, heparin and six peptides at the concentrations indicated in Table 4 were added to the plasma, the mixture was allowed to stand at room temperature for 1 minute, and thrombin was added. The time for the clot to form is indicated. Experiments were performed using plasma from three volunteers—A, B, and C.

[2] = test system: anti-Factor Xa Activity of the Low Molecular Weight Heparin Lovenox ®; assay: Anti-Factor Xa assay (Stachrom Heparin kit): neutralization of Lovenox in citrate or plasma in vitro; assay type: biochemical, human; details: for Lovenox ® Neutralized: Lovenox 0.7 U/ml
Procedure: The ability of peptides such as (ARKKAAKA)3VLVLVLVL (SEQ ID NO:5) to neutralize the anti-Factor Xa activity of UFH and LMWH in vitro was tested using the Stachrom Heparin kit (Diagnostica Stago), a standard hematology laboratory assay used to measure the anti-Factor Xa activity of heparin. The assay was performed using the low molecular weight heparin enoxaparin sodium (Lovenox®, Aventis Pharmaceuticals, Inc.), unfractionated heparin (UFH), or the non-heparin glycosaminoglycan danaparoid sodium (Orgaran®, Organon Inc., West Orange, N.J.) in 0.32% citrate or in plasma anticoagulated with 0.32% citrate. Enoxaparin is commonly used clinically as a low molecular weight heparin (LMWH). Danaparoid is commonly used clinically as a non-heparin glycosaminoglycan anticoagulant. Currently, the only FDA approved drug to target UFH is protamine, which is not effective in vivo against LMWH or a non-heparin glycosaminoglycan such as danaparoid. Buffer and ATIII are added to form the heparin/ATIII complex, peptide is added, then Factor Xa, reporter dye substrate for Factor Xa activity, and stop solution, and the dye concentration is read at 405 nm. The absorbance of the dye increases with increasing Factor Xa activity, and thus is inversely proportional to the heparin (anti-Factor Xa activity) concentration. Peptides were tested in plasma obtained from three volunteers (A, B, and C). Platelet function inhibitors PG12 and theophylline were added to the blood immediately upon collection.
Results. […] (ARKKAAKA)3VLVLVLVL (SEQ ID NO:5) and VLVL(ARKKAAKA)3ARKKCAKA (SEQ ID NO:38) were able to neutralize about 0.4 U/ml anti-Factor Xa activity of LMWH at a concentration of 12 μg/ml, which would be an effective dose for patients. (AKKARA)6 (SEQ ID […]), (ARKKAAKA)4 (SEQ ID NO:31) and (ARKKAAKA)3ARKKCAKA […] 0.3-0.35 U/ml. In contrast, 12 μg protamine only neutralized about 0.25 U/ml of LMWH under these conditions.

Sequence: AKKARAAKKARAAKKARAAKKARAAKKARAAKKARA [(AKKARA)6]
- Time for clot formation ([1]; 0.25 μg peptide/0.1 ml, plasma A): 52.33 ± 6.13 s
- Time for clot formation ([1]; 0.25 μg peptide/0.1 ml, plasma C): 52.67 ± 3.68 s
- Time for clot formation ([1]; 0.30 μg peptide/0.1 ml, plasma A): 29.33 ± 1.25 s
- Time for clot formation ([1]; 0.30 μg peptide/0.1 ml, plasma B): 39.00 ± 3.27 s
- Time for clot formation ([1]; 0.30 μg peptide/0.1 ml, plasma C): 28.67 ± 4.64 s
- Time for clot formation ([1]; 0.35 μg peptide/0.1 ml, plasma A): 20.00 ± 0.00 s
- Time for clot formation ([1]; 0.35 μg peptide/0.1 ml, plasma B): 25.33 ± 0.47 s
- Time for clot formation ([1]; 0.35 μg peptide/0.1 ml, plasma C): 23.00 ± 0.82 s
- Time for clot formation ([1]; 0.40 μg peptide/0.1 ml, plasma A): 21.00 ± 1.41 s
- Time for clot formation ([1]; 0.40 μg peptide/0.1 ml, plasma B): 25.33 ± 1.25 s
- Time for clot formation ([1]; 0.40 μg peptide/0.1 ml, plasma C): 21.00 ± 2.16 s
- Time for clot formation ([1]; 0.50 μg peptide/0.1 ml, plasma A): 20.67 ± 0.94 s
- Time for clot formation ([1]; 0.50 μg peptide/0.1 ml, plasma B): 24.00 ± 0.82 s
- Time for clot formation ([1]; 0.50 μg peptide/0.1 ml, plasma C): 19.33 ± 0.47 s
- peptide concentration that totally neutralizes heparin in thrombin-induced clot formation ([1]; UFH 0.5 IU anti-thrombin activity/ml): 4.0 to 5.0 µg/mL
- Lovenox ® Neutralized ([2]; 1 μg/ml Peptide, A Plasma): 0.055 ± 0.033 U/ml
- Lovenox ® Neutralized ([2]; 1 μg/ml Peptide, B Plasma): 0.029 ± 0.020 U/ml
- Lovenox ® Neutralized ([2]; 1 μg/ml Peptide, C Plasma): 0.044 ± 0.011 U/ml
- Lovenox ® Neutralized ([2]; 1 μg/ml Peptide, Citrate): 0.137 ± 0.058 U/ml
- Lovenox ® Neutralized ([2]; 6 μg/ml Peptide, A Plasma): 0.134 ± 0.009 U/ml
- Lovenox ® Neutralized ([2]; 6 μg/ml Peptide, B Plasma): 0.113 ± 0.083 U/ml
- Lovenox ® Neutralized ([2]; 6 μg/ml Peptide, C Plasma): 0.151 ± 0.015 U/ml
- Lovenox ® Neutralized ([2]; 6 μg/ml Peptide, Citrate): 0.393 ± 0.006 U/ml
- Lovenox ® Neutralized ([2]; 12 μg/ml Peptide, A Plasma): 0.271 ± 0.018 U/ml
- Lovenox ® Neutralized ([2]; 12 μg/ml Peptide, B Plasma): 0.195 ± 0.073 U/ml
- Lovenox ® Neutralized ([2]; 12 μg/ml Peptide, C Plasma): 0.259 ± 0.057 U/ml
- Lovenox ® Neutralized ([2]; 12 μg/ml Peptide, Citrate): 0.434 ± 0.002 U/ml
- anti-Factor Xa activity of LMWH neutralized ([2]; 12 μg/ml, plasma): 0.3-0.35 U/ml
- Lovenox ® Neutralized ([2]; 60 μg/ml Peptide, A Plasma): 0.534 ± 0.033 U/ml
- Lovenox ® Neutralized ([2]; 60 μg/ml Peptide, B Plasma): 0.524 ± 0.042 U/ml
- Lovenox ® Neutralized ([2]; 60 μg/ml Peptide, C Plasma): 0.503 ± 0.039 U/ml
- Lovenox ® Neutralized ([2]; 60 μg/ml Peptide, Citrate): 0.572 ± 0.023 U/ml
- Lovenox ® Neutralized ([2]; 120 μg/ml Peptide, A Plasma): 0.601 ± 0.038 U/ml
- Lovenox ® Neutralized ([2]; 120 μg/ml Peptide, B Plasma): 0.603 ± 0.065 U/ml
- Lovenox ® Neutralized ([2]; 120 μg/ml Peptide, C Plasma): 0.529 ± 0.009 U/ml
- Lovenox ® Neutralized ([2]; 120 μg/ml Peptide, Citrate): 0.588 ± 0.018 U/ml
- anti-LMWH effect in citrate compared with plasma ([2]; Table 2A): greater anti-LMWH effect in citrate than in plasma
